# Laboratory results as given in the supplement of paper PMC8728848.
# Some of the results follow.
# B1: Epa2 (Candida glabrata) (protein)
# chain: MGSSHHHHHHSSGLVPRGSHMASSKDPTSFPMGCSPQVLKTQPGLAVKLYSYGHPVPGCAYNTYQYPDFPRSGYKKERKLADITGVNGRIDIDLKPNDPCRVLSGNLPSNYNYQNTLTYTNFTMILYGYFQPKVTGYHTFNLEADDLLFMNLGAGNAFDCCRAESTLDNFGNYQSYSIWGTDKATADLTVFLVSGIYYPIRLFYVNRDNNAVLDFSFSTEFNKEIIHDFTSYFFSASDEEQCPGNI
# Assays:
# Experiment in all cases: glycan array binding signal (z-score within array); higher = stronger binding
# Conditions in all cases: glycan notation: IUPAC condensed, linker removed
# [1] = molecular target: GlcNAc(b1-2)[GlcNAc(b1-4)]Man(a1-3)[GlcNAc(b1-4)][GlcNAc(b1-2)Man(a1-6)]Man(b1-4)GlcNAc(b1-4)GlcNAc
# Outline: (§1)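 Arrays were curated from the Consortium for Functional Glycomics database, 3228 in total, and kept only where the protein sequence was available. Binding is expressed as a within-array Z-score. This score was averaged across arrays of the same protein sequence at different concentrations or buffers and across linkers, and negative values can be read as non-binding.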
# [2] = molecular target: GlcNAc(b1-2)[GlcNAc(b1-4)]Man(a1-3)[GlcNAc(b1-4)][GlcNAc(b1-2)[GlcNAc(b1-6)]Man(a1-6)]Man(b1-4)GlcNAc(b1-4)GlcNAc
# Outline: as §1
# [3] = molecular target: GlcNAc(b1-2)[GlcNAc(b1-4)]Man(a1-3)[GlcNAc(b1-4)][GlcNAc(b1-2)[GlcNAc(b1-6)]Man(a1-6)]Man(b1-4)GlcNAc(b1-4)[Fuc(a1-6)]GlcNAc
# Outline: as §1
# [4] = molecular target: GlcNAc(b1-2)[GlcNAc(b1-6)]Man(a1-6)[GlcNAc(b1-2)Man(a1-3)]Man(b1-4)GlcNAc(b1-4)GlcNAc
# Outline: as §1
# [5] = molecular target: GlcNAc(b1-2)[GlcNAc(b1-6)]Man(a1-6)[GlcNAc(b1-2)Man(a1-3)]Man(b1-4)GlcNAc(b1-4)[Fuc(a1-6)]GlcNAc
# Outline: as §1
# [6] = molecular target: GlcNAc(b1-2)[GlcNAc(b1-6)]Man(a1-6)[GlcNAc(b1-4)][GlcNAc(b1-2)Man(a1-3)]Man(b1-4)GlcNAc(b1-4)GlcNAc
# Outline: as §1
# [7] = molecular target: GlcNAc(b1-3)Fuc
# Outline: as §1
# [8] = molecular target: GlcNAc(b1-3)Gal
# Outline: as §1
# [9] = molecular target: GlcNAc(b1-3)Gal(b1-3)GalNAc
# Outline: as §1
# [10] = molecular target: GlcNAc(b1-3)Gal(b1-4)Glc
# Outline: as §1
# [11] = molecular target: GlcNAc(b1-3)Gal(b1-4)GlcNAc
# Outline: as §1
# [12] = molecular target: GlcNAc(b1-3)Gal(b1-4)GlcNAc(b1-2)Man(a1-3)[GlcNAc(b1-3)Gal(b1-4)GlcNAc(b1-2)Man(a1-6)]Man(b1-4)GlcNAc(b1-4)GlcNAc
# Outline: as §1
# [13] = molecular target: GlcNAc(b1-3)Gal(b1-4)GlcNAc(b1-2)Man(a1-3)[GlcNAc(b1-3)Gal(b1-4)GlcNAc(b1-2)Man(a1-6)]Man(b1-4)GlcNAc(b1-4)[Fuc(a1-6)]GlcNAc
# Outline: as §1
# [14] = molecular target: GlcNAc(b1-3)Gal(b1-4)GlcNAc(b1-2)[GlcNAc(b1-3)Gal(b1-4)GlcNAc(b1-6)]Man(a1-6)[GlcNAc(b1-3)Gal(b1-4)GlcNAc(b1-2)Man(a1-3)]Man(b1-4)GlcNAc(b1-4)GlcNAc
# Outline: as §1
# [15] = molecular target: GlcNAc(b1-3)Gal(b1-4)GlcNAc(b1-3)Gal(b1-4)GlcNAc
# Outline: as §1
# [16] = molecular target: GlcNAc(b1-3)Gal(b1-4)GlcNAc(b1-3)Gal(b1-4)GlcNAc(b1-2)Man(a1-3)[GlcNAc(b1-3)Gal(b1-4)GlcNAc(b1-3)Gal(b1-4)GlcNAc(b1-2)Man(a1-6)]Man(b1-4)GlcNAc(b1-4)GlcNAc
# Outline: as §1
# [17] = molecular target: GlcNAc(b1-3)Gal(b1-4)GlcNAc(b1-3)Gal(b1-4)GlcNAc(b1-2)Man(a1-3)[GlcNAc(b1-3)Gal(b1-4)GlcNAc(b1-3)Gal(b1-4)GlcNAc(b1-2)Man(a1-6)]Man(b1-4)GlcNAc(b1-4)[Fuc(a1-6)]GlcNAc
# Outline: as §1
# [18] = molecular target: GlcNAc(b1-3)Gal(b1-4)GlcNAc(b1-3)Gal(b1-4)GlcNAc(b1-2)[GlcNAc(b1-3)Gal(b1-4)GlcNAc(b1-3)Gal(b1-4)GlcNAc(b1-6)]Man(a1-6)[GlcNAc(b1-3)Gal(b1-4)GlcNAc(b1-3)Gal(b1-4)GlcNAc(b1-2)Man(a1-3)]Man(b1-4)GlcNAc(b1-4)[Fuc(a1-6)]GlcNAc
# Outline: as §1
# [19] = molecular target: GlcNAc(b1-3)Gal(b1-4)GlcNAc(b1-3)Gal(b1-4)GlcNAc(b1-3)Gal(b1-4)GlcNAc(b1-2)Man(a1-3)[GlcNAc(b1-3)Gal(b1-4)GlcNAc(b1-3)Gal(b1-4)GlcNAc(b1-3)Gal(b1-4)GlcNAc(b1-2)Man(a1-6)]Man(b1-4)GlcNAc(b1-4)GlcNAc
# Outline: as §1
# [20] = molecular target: GlcNAc(b1-3)Gal(b1-4)GlcNAc(b1-3)Gal(b1-4)GlcNAc(b1-3)Gal(b1-4)GlcNAc(b1-2)Man(a1-3)[GlcNAc(b1-3)Gal(b1-4)GlcNAc(b1-3)Gal(b1-4)GlcNAc(b1-3)Gal(b1-4)GlcNAc(b1-2)Man(a1-6)]Man(b1-4)GlcNAc(b1-4)[Fuc(a1-6)]GlcNAc
# Outline: as §1
# [21] = molecular target: GlcNAc(b1-3)Gal(b1-4)GlcNAc(b1-3)Gal(b1-4)GlcNAc(b1-3)Gal(b1-4)GlcNAc(b1-2)[GlcNAc(b1-3)Gal(b1-4)GlcNAc(b1-3)Gal(b1-4)GlcNAc(b1-3)Gal(b1-4)GlcNAc(b1-6)]Man(a1-6)[GlcNAc(b1-3)Gal(b1-4)GlcNAc(b1-3)Gal(b1-4)GlcNAc(b1-3)Gal(b1-4)GlcNAc(b1-2)Man(a1-3)]Man(b1-4)GlcNAc(b1-4)[Fuc(a1-6)]GlcNAc
# Outline: as §1
# [22] = molecular target: GlcNAc(b1-3)Gal(b1-4)GlcNAc(b1-3)Gal(b1-4)GlcNAc(b1-3)Gal(b1-4)GlcNAc(b1-3)Gal(b1-4)GlcNAc(b1-2)Man(a1-3)[GlcNAc(b1-3)Gal(b1-4)GlcNAc(b1-3)Gal(b1-4)GlcNAc(b1-3)Gal(b1-4)GlcNAc(b1-3)Gal(b1-4)GlcNAc(b1-2)Man(a1-6)]Man(b1-4)GlcNAc(b1-4)GlcNAc
# Outline: as §1
# [23] = molecular target: GlcNAc(b1-3)Gal(b1-4)GlcNAc(b1-3)Gal(b1-4)GlcNAc(b1-3)Gal(b1-4)GlcNAc(b1-3)Gal(b1-4)GlcNAc(b1-2)Man(a1-3)[GlcNAc(b1-3)Gal(b1-4)GlcNAc(b1-3)Gal(b1-4)GlcNAc(b1-3)Gal(b1-4)GlcNAc(b1-3)Gal(b1-4)GlcNAc(b1-2)Man(a1-6)]Man(b1-4)GlcNAc(b1-4)[Fuc(a1-6)]GlcNAc
# Outline: as §1
# [24] = molecular target: GlcNAc(b1-3)Gal(b1-4)GlcNAc(b1-3)Gal(b1-4)GlcNAc(b1-3)Gal(b1-4)GlcNAc(b1-3)Gal(b1-4)GlcNAc(b1-2)[GlcNAc(b1-3)Gal(b1-4)GlcNAc(b1-3)Gal(b1-4)GlcNAc(b1-3)Gal(b1-4)GlcNAc(b1-3)Gal(b1-4)GlcNAc(b1-6)]Man(a1-6)[GlcNAc(b1-3)Gal(b1-4)GlcNAc(b1-3)Gal(b1-4)GlcNAc(b1-3)Gal(b1-4)GlcNAc(b1-3)Gal(b1-4)GlcNAc(b1-2)Man(a1-3)]Man(b1-4)GlcNAc(b1-4)[Fuc(a1-6)]GlcNAc
# Outline: as §1
# [25] = molecular target: GlcNAc(b1-3)Gal(b1-4)GlcNAc(b1-3)Gal(b1-4)GlcNAc(b1-3)GalNAc
# Outline: as §1
# [26] = molecular target: GlcNAc(b1-3)Gal(b1-4)GlcNAc(b1-3)GalNAc
# Outline: as §1
# [27] = molecular target: GlcNAc(b1-3)Gal(b1-4)GlcNAc(b1-3)[GlcNAc(b1-3)Gal(b1-4)GlcNAc(b1-3)]GalNAc
# Outline: as §1
# [28] = molecular target: GlcNAc(b1-3)Gal(b1-4)GlcNAc(b1-6)[Gal(b1-3)]GalNAc
# Outline: as §1
# [29] = molecular target: GlcNAc(b1-3)Gal(b1-4)GlcNAc(b1-6)[GlcNAc(b1-3)Gal(b1-3)]GalNAc
# Outline: as §1
# [30] = molecular target: GlcNAc(b1-3)Gal(b1-4)GlcNAc(b1-6)[GlcNAc(b1-3)]Gal(b1-4)GlcNAc
# Outline: as §1
# [31] = molecular target: GlcNAc(b1-3)GalNAc
# Outline: as §1
# [32] = molecular target: GlcNAc(b1-3)Man
# Outline: as §1
# [33] = molecular target: GlcNAc(b1-3)[GlcNAc(b1-4)][GlcNAc(b1-6)]GlcNAc
# Outline: as §1
# [34] = molecular target: GlcNAc(b1-3)[GlcNAc(b1-6)]Gal(b1-4)GlcNAc
# Outline: as §1
# [35] = molecular target: GlcNAc(b1-3)[GlcNAc(b1-6)]GalNAc
# Outline: as §1
# [36] = molecular target: GlcNAc(b1-4)Gal(b1-4)GlcNAc
# Outline: as §1
# [37] = molecular target: GlcNAc(b1-4)GlcNAc
# Outline: as §1
# [38] = molecular target: GlcNAc(b1-4)GlcNAc(b1-4)GlcNAc
# Outline: as §1
binder,measurement,setting,value
B1,glycan array binding signal (z-score),[1],0.219
same,glycan array binding signal (z-score),[2],-0.068
same,glycan array binding signal (z-score),[3],-0.701
same,glycan array binding signal (z-score),[4],-0.896
same,glycan array binding signal (z-score),[5],0.898
same,glycan array binding signal (z-score),[6],-0.884
same,glycan array binding signal (z-score),[7],1.35
same,glycan array binding signal (z-score),[8],-1.33
same,glycan array binding signal (z-score),[9],0.454
same,glycan array binding signal (z-score),[10],-0.511
same,glycan array binding signal (z-score),[11],-0.013
same,glycan array binding signal (z-score),[12],0.061
same,glycan array binding signal (z-score),[13],-0.001
same,glycan array binding signal (z-score),[14],-0.033
same,glycan array binding signal (z-score),[15],-0.752
same,glycan array binding signal (z-score),[16],0.623
same,glycan array binding signal (z-score),[17],0.638
same,glycan array binding signal (z-score),[18],0.83
same,glycan array binding signal (z-score),[19],0.277
same,glycan array binding signal (z-score),[20],1.9
same,glycan array binding signal (z-score),[21],1
same,glycan array binding signal (z-score),[22],0.038
same,glycan array binding signal (z-score),[23],1.04
same,glycan array binding signal (z-score),[24],-0.206
same,glycan array binding signal (z-score),[25],0.046
same,glycan array binding signal (z-score),[26],0.491
same,glycan array binding signal (z-score),[27],0.839
same,glycan array binding signal (z-score),[28],1.19
same,glycan array binding signal (z-score),[29],1.15
same,glycan array binding signal (z-score),[30],-0.534
same,glycan array binding signal (z-score),[31],-1.02
same,glycan array binding signal (z-score),[32],0.236
same,glycan array binding signal (z-score),[33],-0.537
same,glycan array binding signal (z-score),[34],0.074
same,glycan array binding signal (z-score),[35],-0.6
same,glycan array binding signal (z-score),[36],-0.26
same,glycan array binding signal (z-score),[37],0.529
same,glycan array binding signal (z-score),[38],-0.22

# Reformatted bar-delimited: part of the list above
binder | measurement | setting | value
B1 | glycan array binding signal (z-score) | [5] | 0.898
same | glycan array binding signal (z-score) | [12] | 0.061
same | glycan array binding signal (z-score) | [18] | 0.83
same | glycan array binding signal (z-score) | [21] | 1
same | glycan array binding signal (z-score) | [25] | 0.046
same | glycan array binding signal (z-score) | [29] | 1.15
same | glycan array binding signal (z-score) | [31] | -1.02
same | glycan array binding signal (z-score) | [33] | -0.537
